From the supplement of paper PMC10849652
This is one part of the list.

Protein sequences, listed by entry. Tags and fused reporters are not part of them. Lines headed by an entry give the natural chain unless they say otherwise; changes in a name come on top.
UniProt Q8NHM5: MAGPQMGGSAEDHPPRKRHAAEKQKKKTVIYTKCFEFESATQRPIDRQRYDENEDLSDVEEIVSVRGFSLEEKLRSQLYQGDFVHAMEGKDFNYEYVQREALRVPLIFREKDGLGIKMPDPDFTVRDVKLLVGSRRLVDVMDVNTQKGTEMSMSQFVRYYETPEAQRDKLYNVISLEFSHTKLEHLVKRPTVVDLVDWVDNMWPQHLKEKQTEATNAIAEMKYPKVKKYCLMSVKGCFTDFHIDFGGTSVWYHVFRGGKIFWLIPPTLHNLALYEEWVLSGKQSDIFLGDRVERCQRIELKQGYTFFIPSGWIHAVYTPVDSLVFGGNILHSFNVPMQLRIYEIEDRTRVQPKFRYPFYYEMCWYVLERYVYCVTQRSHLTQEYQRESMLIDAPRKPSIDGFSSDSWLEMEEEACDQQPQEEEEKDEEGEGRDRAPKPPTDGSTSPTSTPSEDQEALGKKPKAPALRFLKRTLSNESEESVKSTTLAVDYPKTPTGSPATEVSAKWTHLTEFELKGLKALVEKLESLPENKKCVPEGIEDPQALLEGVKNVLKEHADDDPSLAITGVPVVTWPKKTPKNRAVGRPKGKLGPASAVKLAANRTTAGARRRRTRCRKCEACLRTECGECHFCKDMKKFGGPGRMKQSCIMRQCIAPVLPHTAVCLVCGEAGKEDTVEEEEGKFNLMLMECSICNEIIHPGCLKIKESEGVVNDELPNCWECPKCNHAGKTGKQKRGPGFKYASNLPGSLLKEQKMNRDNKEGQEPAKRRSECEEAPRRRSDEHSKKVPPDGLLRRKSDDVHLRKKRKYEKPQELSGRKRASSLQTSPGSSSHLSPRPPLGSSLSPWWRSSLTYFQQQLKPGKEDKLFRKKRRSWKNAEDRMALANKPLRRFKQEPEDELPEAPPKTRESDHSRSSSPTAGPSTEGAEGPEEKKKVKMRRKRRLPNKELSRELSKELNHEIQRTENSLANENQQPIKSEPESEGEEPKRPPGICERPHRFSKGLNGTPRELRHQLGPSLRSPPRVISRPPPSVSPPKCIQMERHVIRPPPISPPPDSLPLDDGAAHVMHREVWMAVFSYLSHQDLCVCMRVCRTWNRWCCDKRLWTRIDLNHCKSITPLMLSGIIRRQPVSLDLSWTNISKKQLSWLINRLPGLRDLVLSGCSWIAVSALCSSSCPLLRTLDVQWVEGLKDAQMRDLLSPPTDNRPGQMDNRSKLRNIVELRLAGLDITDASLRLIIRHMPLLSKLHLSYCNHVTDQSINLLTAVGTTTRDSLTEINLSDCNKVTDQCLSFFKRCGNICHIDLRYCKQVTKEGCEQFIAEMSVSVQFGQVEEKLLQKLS
UniProt P0C870: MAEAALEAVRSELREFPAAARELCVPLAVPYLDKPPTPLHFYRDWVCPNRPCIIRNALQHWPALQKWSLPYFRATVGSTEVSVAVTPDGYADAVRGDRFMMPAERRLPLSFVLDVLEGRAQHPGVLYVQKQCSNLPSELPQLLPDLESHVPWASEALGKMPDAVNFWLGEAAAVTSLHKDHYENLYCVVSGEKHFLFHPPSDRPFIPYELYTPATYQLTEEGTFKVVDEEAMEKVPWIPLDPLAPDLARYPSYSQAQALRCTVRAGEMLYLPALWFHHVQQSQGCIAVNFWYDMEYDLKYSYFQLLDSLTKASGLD
UniProt Q9H079: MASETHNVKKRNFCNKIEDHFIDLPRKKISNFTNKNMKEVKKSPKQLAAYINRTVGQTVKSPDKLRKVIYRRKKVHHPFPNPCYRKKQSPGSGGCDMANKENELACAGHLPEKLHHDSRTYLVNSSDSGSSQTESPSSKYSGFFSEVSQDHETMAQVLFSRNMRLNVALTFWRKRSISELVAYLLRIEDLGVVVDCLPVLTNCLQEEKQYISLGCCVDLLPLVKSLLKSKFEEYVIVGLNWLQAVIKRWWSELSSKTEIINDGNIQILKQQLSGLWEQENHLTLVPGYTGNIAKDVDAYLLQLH
UniProt Q9H1H9: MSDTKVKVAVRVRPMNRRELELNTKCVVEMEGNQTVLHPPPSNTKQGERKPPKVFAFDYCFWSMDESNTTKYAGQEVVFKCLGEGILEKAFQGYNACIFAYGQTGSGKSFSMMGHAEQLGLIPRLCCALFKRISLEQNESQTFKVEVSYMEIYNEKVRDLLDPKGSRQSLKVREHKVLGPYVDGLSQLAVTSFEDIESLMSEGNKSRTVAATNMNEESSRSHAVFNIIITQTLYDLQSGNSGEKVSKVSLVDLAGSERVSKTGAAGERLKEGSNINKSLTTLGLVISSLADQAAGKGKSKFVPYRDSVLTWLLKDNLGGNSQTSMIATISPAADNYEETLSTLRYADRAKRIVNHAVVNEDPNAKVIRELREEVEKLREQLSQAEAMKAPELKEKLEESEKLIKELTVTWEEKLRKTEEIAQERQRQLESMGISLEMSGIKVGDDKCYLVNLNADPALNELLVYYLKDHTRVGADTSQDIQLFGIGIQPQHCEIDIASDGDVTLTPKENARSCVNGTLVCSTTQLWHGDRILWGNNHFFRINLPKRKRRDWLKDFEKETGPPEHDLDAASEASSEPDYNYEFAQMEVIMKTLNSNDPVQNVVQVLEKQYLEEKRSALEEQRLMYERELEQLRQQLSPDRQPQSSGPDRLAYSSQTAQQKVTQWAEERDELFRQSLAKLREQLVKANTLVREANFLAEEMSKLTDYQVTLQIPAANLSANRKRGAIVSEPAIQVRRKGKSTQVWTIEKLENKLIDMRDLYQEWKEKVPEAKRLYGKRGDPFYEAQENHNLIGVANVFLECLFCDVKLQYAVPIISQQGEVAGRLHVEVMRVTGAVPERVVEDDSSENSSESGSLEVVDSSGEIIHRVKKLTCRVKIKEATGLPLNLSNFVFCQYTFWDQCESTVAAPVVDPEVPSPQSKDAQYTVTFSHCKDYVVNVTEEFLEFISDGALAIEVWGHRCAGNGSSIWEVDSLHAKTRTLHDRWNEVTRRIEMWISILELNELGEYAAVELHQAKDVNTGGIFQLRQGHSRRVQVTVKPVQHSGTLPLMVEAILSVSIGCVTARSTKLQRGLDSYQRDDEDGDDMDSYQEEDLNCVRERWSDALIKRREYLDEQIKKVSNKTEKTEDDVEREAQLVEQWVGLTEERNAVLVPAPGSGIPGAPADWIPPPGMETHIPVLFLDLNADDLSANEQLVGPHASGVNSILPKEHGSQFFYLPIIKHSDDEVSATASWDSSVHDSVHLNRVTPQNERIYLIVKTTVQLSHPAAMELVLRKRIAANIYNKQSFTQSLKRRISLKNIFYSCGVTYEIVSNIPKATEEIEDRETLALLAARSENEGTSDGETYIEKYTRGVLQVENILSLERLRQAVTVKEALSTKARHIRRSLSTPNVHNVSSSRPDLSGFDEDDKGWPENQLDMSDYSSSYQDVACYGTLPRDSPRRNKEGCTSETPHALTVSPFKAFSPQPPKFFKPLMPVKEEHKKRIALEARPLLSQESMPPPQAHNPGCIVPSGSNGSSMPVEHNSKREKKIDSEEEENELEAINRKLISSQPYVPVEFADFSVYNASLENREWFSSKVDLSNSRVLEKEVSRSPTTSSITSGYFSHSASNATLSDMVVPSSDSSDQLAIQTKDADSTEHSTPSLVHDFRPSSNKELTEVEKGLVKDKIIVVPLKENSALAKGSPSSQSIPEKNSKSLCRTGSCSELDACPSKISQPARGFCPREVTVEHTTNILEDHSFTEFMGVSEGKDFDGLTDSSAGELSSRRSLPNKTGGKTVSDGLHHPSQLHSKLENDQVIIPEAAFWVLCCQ
UniProt Q1ED39: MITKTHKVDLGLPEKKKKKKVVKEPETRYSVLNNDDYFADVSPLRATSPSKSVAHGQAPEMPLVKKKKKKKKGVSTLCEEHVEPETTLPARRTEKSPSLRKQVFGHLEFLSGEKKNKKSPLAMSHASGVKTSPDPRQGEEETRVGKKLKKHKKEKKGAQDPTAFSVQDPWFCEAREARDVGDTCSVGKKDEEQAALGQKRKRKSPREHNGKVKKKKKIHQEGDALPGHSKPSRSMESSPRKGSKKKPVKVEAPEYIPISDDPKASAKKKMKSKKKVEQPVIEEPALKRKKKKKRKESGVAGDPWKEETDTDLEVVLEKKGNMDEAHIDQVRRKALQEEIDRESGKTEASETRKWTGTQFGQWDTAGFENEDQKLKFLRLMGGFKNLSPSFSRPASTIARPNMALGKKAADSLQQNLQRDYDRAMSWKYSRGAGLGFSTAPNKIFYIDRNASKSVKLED
UniProt Q969F8, whole entry, looked up: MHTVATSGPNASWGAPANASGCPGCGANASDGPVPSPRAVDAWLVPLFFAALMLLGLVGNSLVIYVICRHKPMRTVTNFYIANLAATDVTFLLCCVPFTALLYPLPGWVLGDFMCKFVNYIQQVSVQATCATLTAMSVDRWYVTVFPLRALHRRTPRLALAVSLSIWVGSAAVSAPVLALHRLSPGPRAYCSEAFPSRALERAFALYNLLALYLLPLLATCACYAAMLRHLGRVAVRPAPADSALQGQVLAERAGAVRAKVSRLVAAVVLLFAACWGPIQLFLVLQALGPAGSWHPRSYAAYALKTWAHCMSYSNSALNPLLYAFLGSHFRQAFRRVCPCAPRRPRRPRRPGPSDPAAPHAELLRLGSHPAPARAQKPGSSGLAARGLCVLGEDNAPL
UniProt Q9Y664: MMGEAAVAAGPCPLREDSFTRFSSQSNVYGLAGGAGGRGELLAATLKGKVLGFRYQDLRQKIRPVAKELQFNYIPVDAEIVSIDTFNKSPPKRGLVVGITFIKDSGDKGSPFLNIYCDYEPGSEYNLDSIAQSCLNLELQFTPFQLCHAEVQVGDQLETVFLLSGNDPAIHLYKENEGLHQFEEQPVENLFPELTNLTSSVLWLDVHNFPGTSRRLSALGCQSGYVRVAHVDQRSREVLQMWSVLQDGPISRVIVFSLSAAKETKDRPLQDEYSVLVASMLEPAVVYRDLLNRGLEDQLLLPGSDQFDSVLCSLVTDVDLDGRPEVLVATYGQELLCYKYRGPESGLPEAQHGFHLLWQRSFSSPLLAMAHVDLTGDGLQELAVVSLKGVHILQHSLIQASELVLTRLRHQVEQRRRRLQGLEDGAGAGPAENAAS

Tests used:
Experiment in all cases: log2 fold change, soluble protein after heating vs DMSO (PISA); higher = thermal stabilisation; K562 cells, 10 uM, 30 min; active = over 0.2 and 3.5 SD of the protein, either way, in both replicates (recomputed)
[1] = compound: NC(=O)Nc1cc(-c2cccc(F)c2)sc1C(=O)N[C@H]1CCCNC1
Procedure, shortened: (§1)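 For each measurement, 10 μM compound was applied for 30 min to K562 cells at 2×10^6 cells/mL. Aliquots were heated for 3 min across 48°C-58°C, pooled, and extracted in PBS with 0.5% NP-40 at 4°C; the supernatant after 21,000xg for 90 min was soluble protein. This was quantified by TMTpro 16plex LC-MS/MS with channel sums equalised, and thermal stability was reported relative to control samples from duplicates, on a log2 fold-change scale.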

[2] = compound: Nc1ccccc1NC(=O)c1ccc(CNC(=O)OCc2cccnc2)cc1 [entinostat]
Procedure, shortened: as §1

[3] = compound: NC1(c2ccc(-c3nc4ccn5c(=O)[nH]nc5c4cc3-c3ccccc3)cc2)CCC1
Procedure, shortened: as §1

[4] = compound: NCC(=O)Nc1ccc(-n2nc(C(F)(F)F)cc2-c2ccc3c(ccc4ccccc43)c2)cc1
Procedure, shortened: as §1

[5] = compound: O=C(CCCCCCNC(=O)c1cnc(N(c2ccccc2)c2ccccc2Cl)nc1)NO [citarinostat]
Procedure, shortened: as §1

[6] = compound: O=C(O)c1ccc2c(c1)nc(Nc1cccc(Cl)c1)c1ccncc12 [silmitasertib]
Procedure, shortened: as §1

[7] = compound: O=C1NC(=O)C(c2cnc3ccccn23)=C1c1cn2c3c(cc(F)cc13)CN(C(=O)N1CCCCC1)CC2
Procedure, shortened: as §1

[8] = compound: c1cc(OCCN2CCCCC2)cc(-c2n[nH]c3ccc(-c4nnc[nH]4)cc23)c1
Procedure, shortened: as §1

[9] = compound: O=C(CCCCCCC(=O)Nc1ccccc1)NO [vorinostat]
Procedure, shortened: as §1

[10] = compound: NC(=O)c1cnc(N[C@@H]2CCCC[C@@H]2N)nc1Nc1cccc(-n2nccn2)c1
Procedure, shortened: as §1

Measured: log2 fold change

KDM2B (UniProt Q8NHM5)
inactive: [1] -0.196 | [2] 0.143

KIAA0930 isoform 2 (UniProt Q6ICG6)
inactive: [1] -0.148 | [3] -0.076 | [4] -0.037 | [2] -0.076 | [5] -0.214 | [6] 0.026 | [7] 0.135 | [8] -0.059

KIAA1109 (UniProt Q2LD37)
inactive: [1] 0.012 | [2] -0.171 | [9] -0.32 | [5] 0 | [8] 0.196

JMJD7 (UniProt P0C870)
inactive: [1] -0.125 | [2] 0.111 | [5] 0.063 | [7] -0.142 | [8] -0.154

KATNBL1 (UniProt Q9H079)
inactive: [1] 0.056 | [3] 0.006 | [4] -0.167 | [2] 0.107 | [9] 0.02 | [5] -0.057 | [6] -0.04 | [8] -0.247

KIF13A isoform 4 (UniProt Q9H1H9)
inactive: [1] -0.034 | [10] -0.165 | [2] 0.303

KNOP1 (UniProt Q1ED39)
inactive: [10] 0.085 | [3] 0.201 | [4] -0.028 | [9] -0.021 | [5] 0.043 | [6] -0.122 | [8] 0.077

KISS1R (UniProt Q969F8)
inactive: [1] -0.074 | [3] 0.041 | [2] -0.142 | [9] 0.097 | [6] -0.022 | [7] -0.016

KPTN (UniProt Q9Y664)
inactive: [10] -0.083 | [3] -0.188 | [4] -0.015 | [9] 0.006 | [5] 0.051 | [6] 0.106 | [7] 0.064 | [8] -0.009
